The data set can be described thus: Detection of protein sulfenic acid modifications in vitro (dimedone, Western blot). The conditions noted are these: 62.5 ng protein, H2O2 (1 mM) for 1 minute in presence of dimedone (10 mM). As for the experimental part:
Detection of protein sulfenic acid modifications—Detection of protein sulfenic acid in vitro was done as described previously (14,15,27). Briefly, equal amounts (62.5 ng) of thrombin cleaved WT (MpWT) and triple mutated (MpT) recombinant maspin proteins were oxidized with H2O2 (1 mM) for 1 minute in the presence of dimedone (10 mM). The oxidation of cysteine residues was detected by Western blot analysis using an antibody (Millipore; Cat No. 07-2139) that specifically recognizes dimedone derivatized cysteine sulfenic acid residues.

B1: triple mutated maspin: thrombin cleaved triple mutated recombinant maspin protein (C183, C205, C323 to serine) (protein, UniProt P36952 1-375, looked up, variant C183S C205S C323S)
Serpin B5: MDALQLANSAFAVDLFKQLCEKEPLGNVLFSPICLSTSLSLAQVGAKGDTANEIGQVLHFENVKDVPFGFQTVTSDVNKLSSFYSLKLIKRLYVDKSLNLSTEFISSTKRPYAKELETVDFKDKLEETKGQINNSIKDLTDGHFENILADNSVNDQTKILVVNAAYFVGKWMKKFSESETKESPFRVNKTDTKPVQMMNMEATFSMGNIDSINCKIIELPFQNKHLSMFILLPKDVEDESTGLEKIEKQLNSESLSQWTNPSTMANAKVKLSIPKFKVEKMIDPKACLENLGLKHIFSEDTSDFSGMSETKGVALSNVIHKVSLEITEDGGDSIEVPGARILQHKDELNADHPFIYIIRHNKTRNIIFFGKFCSP
As to B1, the “signal with anti-cysteine sulfenic acid antibody (oxidation of cysteine thiol to sulfenic acid)” value is on record as “absence of signal”.

B2: WT maspin: thrombin cleaved WT recombinant maspin protein (protein, UniProt P36952 1-375, looked up)
Serpin B5: MDALQLANSAFAVDLFKQLCEKEPLGNVLFSPICLSTSLSLAQVGAKGDTANEIGQVLHFENVKDVPFGFQTVTSDVNKLSSFYSLKLIKRLYVDKSLNLSTEFISSTKRPYAKELETVDFKDKLEETKGQINNSIKDLTDGHFENILADNSVNDQTKILVVNAAYFVGKWMKKFSESETKECPFRVNKTDTKPVQMMNMEATFCMGNIDSINCKIIELPFQNKHLSMFILLPKDVEDESTGLEKIEKQLNSESLSQWTNPSTMANAKVKLSIPKFKVEKMIDPKACLENLGLKHIFSEDTSDFSGMSETKGVALSNVIHKVCLEITEDGGDSIEVPGARILQHKDELNADHPFIYIIRHNKTRNIIFFGKFCSP
With B2, the “signal with anti-cysteine sulfenic acid antibody (oxidation of cysteine thiol to sulfenic acid)” value is “oxidation of thiol groups to cysteine sulfenic acid”.

The values above are taken from patent US11723961B2, “Maspin, maspin derivatives, and maspin mimetics for reducing ROS, inflammation, and skin aging” (Northwestern University, priority 2014, dated 2023).
